Laboratory results taken from the supplement of paper PMC12542422.
± gives the standard deviation of the averaged measurements. The list shows a part of the results. Values are raw readings; no control value is given beside them.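 HeLa cells imaged for ribosome-assembly readouts (ENP1 staining with or without export block, or inducible tagged ribosomal protein reporters); machine learning classified each cell's signal location against solvent (DMSO) controls. Hits exceeded the DMSO false-positive mean by five standard deviations, then were visually confirmed; three biological replicates.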

Key:
[1] = system: HeLa K (ENP1 immunofluorescence, +LMB); assay: fraction of cells with nucleolar or nucleolar/nucleoplasmic ENP1 signal (MainHitrate); higher = more cells with nucleolar/nuclear readout signal (for ENP1 -LMB: less RNAPI inhibition; for +LMB ENP1 and RP reporters: stronger nuclear/nucleolar retention, i.e. ribosome biogenesis defect); settings: concentration: 1 µM; treatment time: 6 h; ENP1 +LMB; leptomycin B: 20 nM, last 1.5 h
[2] = system: HeLa K (ENP1 immunofluorescence, no LMB); assay: as above; settings: concentration: 1 µM; treatment time: 6 h; ENP1 -LMB; leptomycin B: none
HeLa RPS2-YFP reporter = assay: fraction of reporter-positive cells with nuclear (nucleolar or nucleolar/nucleoplasmic) RPS2-YFP (MainHitrate); higher = more cells with nucleolar/nuclear readout signal (for ENP1 -LMB: less RNAPI inhibition; for +LMB ENP1 and RP reporters: stronger nuclear/nucleolar retention, i.e. ribosome biogenesis defect); settings: concentration: 1 µM; treatment time: 6 h
HeLa RPL29-GFP reporter = assay: fraction of reporter-positive cells with nuclear (nucleolar or nucleolar/nucleoplasmic) RPL29-GFP (MainHitrate); higher = more cells with nucleolar/nuclear readout signal (for ENP1 -LMB: less RNAPI inhibition; for +LMB ENP1 and RP reporters: stronger nuclear/nucleolar retention, i.e. ribosome biogenesis defect); settings: concentration: 1 µM; treatment time: 6 h

SMILES	fraction [1]	fraction [2]	fraction of reporter-positive cells with nuclear (HeLa RPS2-YFP reporter)	fraction of reporter-positive cells with nuclear (HeLa RPL29-GFP reporter)
O=C(N/N=C/c1ccc([N+](=O)[O-])o1)c1ccc(O)cc1 [Nifuroxazide]	0.0616 ± 0.085	0.98 ± 0.034	0.119 ± 0.1	0.212 ± 0.088
COc1cc(NC(C)CCCN)c2ncccc2c1 (centres undefined) [Primaquine Diphosphate]	0.174 ± 0.18	0.991 ± 0.016	0.141 ± 0.11	0.211 ± 0.087
O=C(NC[C@H]1CN(c2ccc(N3CCOCC3=O)cc2)C(=O)O1)c1ccc(Cl)s1 [Rivaroxaban (Xarelto)]	0.0854 ± 0.12	0.989 ± 0.019	0.116 ± 0.11	0.202 ± 0.073
Clc1ccc(C(Cn2ccnc2)OCc2c(Cl)cccc2Cl)c(Cl)c1 (centres undefined) [Isoconazole nitrate (Travogen)]	0.133 ± 0.18	0.981 ± 0.033	0.118 ± 0.083	0.235 ± 0.073
N=C(N)c1ccc(N=NNc2ccc(C(=N)N)cc2)cc1 [Diminazene Aceturate]	0.0609 ± 0.083	0.993 ± 0.012	0.12 ± 0.11	0.203 ± 0.057
COc1nc(N)nc2c1ncn2[C@@H]1O[C@H](CO)[C@@H](O)[C@@H]1O [Nelarabine (Arranon)]	0.0562 ± 0.049	0.9977 ± 0.0039	0.113 ± 0.069	0.197 ± 0.052
